Values from PubChem BioAssay AID1259405 (NCATS, 2018)

- Purpose: 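Silenced genes that increase secreted GFP made by CHO cells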 (primary screen)
- Cells: Chinese hamster CHO-K1 ovary cells with stable secreted eGFP expression
- Reagent: single siRNA against mouse genes, 0.8 pmol siRNA per well (2 µl of 400 nM stock)
- Timing: 3 days
- Read-out: 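Percent of the per-plate non-targeting control median for intracellular GFP per well by laser scanning cytometry and for cell viability by ATP luminescence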
- Direction: GFP, % of control: higher = more GFP per well, higher productivity; viability (ATP), % of control: higher = more viable cells (more ATP)
- Call rule: 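Called active when intracellular GFP, relative to negative control, is at or above 120%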
The whole screen tested about 50,000 reagents; this is a part drawn at random. Of all reagents, about 4,000 (8%) were called active. 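Mouse siRNA library applied to hamster cells; one well for each siRNA.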 Entries without a mark were called inactive. Reagents against one gene are numbered here. Reagent sequences are not shown.

gene knocked down	siRNA no.	GFP, % of control	viability (ATP), % of control
Vps4a (vacuolar protein sorting 4A)	1	89.1	92
Vps4a (vacuolar protein sorting 4A)	2	59.9	79.8
Vps4a (vacuolar protein sorting 4A)	3	40.1	58.4
Rdh13 (retinol dehydrogenase 13 (all-trans and 9-cis))	1	82.6	101
Rdh13 (retinol dehydrogenase 13 (all-trans and 9-cis))	2	81.6	88
Rdh13 (retinol dehydrogenase 13 (all-trans and 9-cis))	3	72.1	98.5
Dmrt2 (doublesex and mab-3 related transcription factor 2)	1	43.3	40
Dmrt2 (doublesex and mab-3 related transcription factor 2)	2	66.7	84.5
Dmrt2 (doublesex and mab-3 related transcription factor 2)	3	68.7	81.7
Gskip (GSK3B interacting protein)	1	87.9	85.9
Gskip (GSK3B interacting protein)	2	59.4	84.6
Gskip (GSK3B interacting protein)	3	96.6	105
Taf7 (TATA-box binding protein associated factor 7)	1	79.5	82.2
Taf7 (TATA-box binding protein associated factor 7)	2	70.2	82.7
Taf7 (TATA-box binding protein associated factor 7)	3	71.7	86.2
Alpk3 (alpha-kinase 3)	1	102	55.7
Alpk3 (alpha-kinase 3)	2	65	70.4
Gimap4 (GTPase, IMAP family member 4)	1	49.9	74
Gimap4 (GTPase, IMAP family member 4)	2	70.4	77.7
Gimap4 (GTPase, IMAP family member 4)	3	90.3	93.4
Cfap69 (cilia and flagella associated protein 69)	1	127 (active)	88.8
Cfap69 (cilia and flagella associated protein 69)	2	95.7	71.4
Cfap69 (cilia and flagella associated protein 69)	3	77.1	72.7
Rab20 (RAB20, member RAS oncogene family)	1	138 (active)	140
Rab20 (RAB20, member RAS oncogene family)	2	147 (active)	112
Rab20 (RAB20, member RAS oncogene family)	3	75	77.1
Prol1 (proline rich, lacrimal 1)	1	97	81.1
Prol1 (proline rich, lacrimal 1)	2	71.3	72.4
Prol1 (proline rich, lacrimal 1)	3	91.5	54.2
Trpm2	1	67.5	63.6
Trpm2	2	76.1	81.8
Trpm2	3	66.1	76.2
Tmem218 (transmembrane protein 218)	1	81.6	73.2
Tmem218 (transmembrane protein 218)	2	67.6	64.1
Tmem218 (transmembrane protein 218)	3	51.8	78.5
B4galt3	1	94.6	96
B4galt3	2	91.7	89.9
B4galt3	3	77.9	125
Mtcp1 (mature T cell proliferation 1)	1	50.8	39.3
Mtcp1 (mature T cell proliferation 1)	2	97.8	57.8
Mtcp1 (mature T cell proliferation 1)	3	81	78.7
Clec4b2 (C-type lectin domain family 4, member b2)	1	38.9	70.6
Clec4b2 (C-type lectin domain family 4, member b2)	2	65.2	61.7
Clec4b2 (C-type lectin domain family 4, member b2)	3	93.5	59.3
Mapk14 (mitogen-activated protein kinase 14)	1	103	86.8
Ube2l6 (ubiquitin-conjugating enzyme E2L 6)	1	70.3	87.4
Ube2l6 (ubiquitin-conjugating enzyme E2L 6)	2	75.5	67.6
Ube2l6 (ubiquitin-conjugating enzyme E2L 6)	3	72.4	115
Nup214 (nucleoporin 214)	1	113	101
Nup214 (nucleoporin 214)	2	77.8	58.8
Nup214 (nucleoporin 214)	3	47.3	35.9
Sycp1 (synaptonemal complex protein 1)	1	101	60.1
Sycp1 (synaptonemal complex protein 1)	2	69.8	75.8
Eif2ak4 (eukaryotic translation initiation factor 2 alpha kinase 4)	1	101	102
Eif2ak4 (eukaryotic translation initiation factor 2 alpha kinase 4)	2	51.2	33.3
Eif2ak4 (eukaryotic translation initiation factor 2 alpha kinase 4)	3	69.2	96.1
Alkbh6 (alkB homolog 6)	1	72.7	76
Alkbh6 (alkB homolog 6)	2	85.2	75.6
Alkbh6 (alkB homolog 6)	3	101	95.2
Ren1 (renin 1 structural)	1	42.9	48.4
Ren1 (renin 1 structural)	2	31.5	42.4
Ren1 (renin 1 structural)	3	70.2	76.2
Xlr (X-linked lymphocyte-regulated)	1	85.2	97.5
Xlr (X-linked lymphocyte-regulated)	2	106	75.4
Xlr (X-linked lymphocyte-regulated)	3	94.3	102
Kcnj14	1	70.9	82.7
Kcnj14	2	63.4	70.3
Kcnj14	3	50.2	39.9
Rbm15b (RNA binding motif protein 15B)	1	71.7	97.7
Rbm15b (RNA binding motif protein 15B)	2	69.6	62.2
Rbm15b (RNA binding motif protein 15B)	3	63.7	98.3
Vps29 (VPS29 retromer complex component)	1	51.8	58.1
Vps29 (VPS29 retromer complex component)	2	56.4	74.3
Vps29 (VPS29 retromer complex component)	3	58.4	93.7
Rufy2 (RUN and FYVE domain-containing 2)	1	63.1	72.2
Rufy2 (RUN and FYVE domain-containing 2)	2	171 (active)	84.2
Rufy2 (RUN and FYVE domain-containing 2)	3	68.5	76.9
Emc9 (ER membrane protein complex subunit 9)	1	80.5	80.1
Emc9 (ER membrane protein complex subunit 9)	2	138 (active)	114
Emc9 (ER membrane protein complex subunit 9)	3	67.2	54.4
Pafah1b3	1	97.1	88.7
Pafah1b3	2	113	105
Pafah1b3	3	137 (active)	73.1
Slc2a3	1	79.4	85.5
Slc2a3	2	98.6	109
Slc2a3	3	88	97.4

Part of the list above, reformatted:
gene knocked down | siRNA no. | GFP, % of control | viability (ATP), % of control
Rbm15b (RNA binding motif protein 15B) | 2 | 69.6 | 62.2
Rbm15b (RNA binding motif protein 15B) | 3 | 63.7 | 98.3
Vps29 (VPS29 retromer complex component) | 1 | 51.8 | 58.1
Vps29 (VPS29 retromer complex component) | 2 | 56.4 | 74.3
